Experimental data published in publication PMC9119445, “Ustilago maydis telomere protein Pot1 harbors an extra N-terminal OB fold and regulates homology-directed DNA repair factors in a dichotomous and context-dependent manner”.
No constants are given. Whether binding was seen depends on the method and setting. Binding calls can cover weak binding; strength is not graded here.

How the values were obtained:
[1] = biological target: Ustilago maydis Pot1 with a C-terminal FLAG tag (Pot1-FLAG) (U. maydis); test: pull-down; Pot1-FLAG (or FLAG-tagged truncation variant) immobilised on anti-FLAG resin; 1 μM purified Rad51 or MBP-Brh2/DSS1 complex; 4°C, 1 h, FLAG(65) buffer (50 mM Tris-HCl pH 7.5, 65 mM NaCl, 10% glycerol, 0.1% NP-40, 2.5 mM MgCl2, 1 mM DTT); washes at 100 mM NaCl; elution with FLAG3 peptide; Western blot (anti-Rad51, anti-MBP, anti-FLAG); also with Benzonase (no effect); both purified
[2] = biological target: Pot1 OB-N domain fragment, FLAG-tagged (U. maydis); test: as above

- binding [1]: binds
- binding [2]: binds
B1: Ustilago maydis Rad51 (protein, UniProt Q99133 1-339)
chain: MSQNAQDPAQIGEDDMGEAFGPLPVSKLEEFGISSSDCKKLAESGYNTVESIAFTPKKQLLLVKGVSEAKADKILAEAARLVPMGFTTATEFHARRNELISITTGSKNLDAILGGGMETGSITELYGEFRTGKSQLCHTLAVTCQLPVDMGGGEGKCLYIDTENTFRPTRLLAVAERFGLNGEEVLDNVAYARAYNADHQLQLLMQASAMMAESRFSLLIVDSLTSLYRTDFSGRGELSARQMHLAKFLRGLMRLADEFGVAVVITNQVVAQVDGATAFTADAKKPIGGNIVAHASTTRLSLRKGRGNQRICRIADSPCLPEADAVFAIGPEGIIDPVD
